According to PubChem BioAssay AID720504 (National Center for Advancing Translational Sciences (NCATS), 2013):
Several values for one entry are separate records, joined by “and”; a condition that tells them apart may be missing. Identical values can stand only once. In all, about 360,000 compounds went through this assay and about 10,000 (2.8%) were called active. The shares of active, inactive and inconclusive entries below differ from those in the screen. The call rests on the fitted dose curve; in most records, active means well fitted inhibition curve with a large enough effect; inconclusive means small, poorly fitted or top-dose-only effect; inactive means flat fitted curve, though single readings scatter. Where the call is inconclusive, the potency comes from a doubtful curve fit.

Protein sequences, listed by entry. Tags and fused reporters are not part of them.
UniProt P53350, whole entry, looked up: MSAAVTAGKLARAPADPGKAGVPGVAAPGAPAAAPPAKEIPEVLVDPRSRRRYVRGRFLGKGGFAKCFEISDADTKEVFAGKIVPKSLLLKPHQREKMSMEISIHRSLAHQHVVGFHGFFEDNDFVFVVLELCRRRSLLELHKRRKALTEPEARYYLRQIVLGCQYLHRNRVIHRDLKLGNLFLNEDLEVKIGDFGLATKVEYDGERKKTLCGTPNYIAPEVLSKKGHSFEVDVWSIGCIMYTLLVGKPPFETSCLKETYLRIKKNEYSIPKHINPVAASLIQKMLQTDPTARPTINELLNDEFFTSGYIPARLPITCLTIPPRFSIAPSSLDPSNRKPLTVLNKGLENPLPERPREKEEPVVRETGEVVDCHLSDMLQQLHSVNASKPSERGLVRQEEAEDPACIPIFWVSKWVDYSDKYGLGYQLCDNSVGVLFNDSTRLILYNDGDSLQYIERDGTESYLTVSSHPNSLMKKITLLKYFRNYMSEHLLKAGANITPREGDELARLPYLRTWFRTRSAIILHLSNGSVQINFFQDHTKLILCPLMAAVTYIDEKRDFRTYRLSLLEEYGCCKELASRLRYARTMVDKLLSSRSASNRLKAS

What follows are molecules tested against Serine/threonine-protein kinase PLK1 (Homo sapiens) (UniProt P53350) (assay: qHTS for Inhibitors of PLK1-PDB (polo-like kinase 1 - polo-box domain): Primary Screen). Conditions: Plk1 PBD binding of FITC phosphopeptide, fluorescence polarization.
Further: nearly all actives have a fitted effect of over 65% in size.
On the % scale 0 is the no-effect control and ±100 the full control effect; potency means the concentration at half of the fitted maximal effect.
Wherever max response, negative = inhibition is given: series mostly up to about 57 µM.

Question: With `Cc1ccc2nc(SCC(=O)Nc3cccc([N+](=O)[O-])c3)[nH]c2c1` as the molecule, how does the max response, negative = inhibition read?
Answer: inactive: -8.99%

Question: With `Cc1c(S(=O)(=O)Nc2ccc(Oc3ccccc3)cc2)c(=O)n(C)c(=O)n1C` as the molecule, how does the max response, negative = inhibition read?
Answer: inactive: -3.28%

Question: Which max response, negative = inhibition does the source give for `O=C(NCCO)C(=O)NCC1OCCCN1S(=O)(=O)c1ccc2c(c1)OCCO2` (stereo not given) here?
Answer: inactive: -0.915%

Question: For `CN(C)C(=O)c1ccc(SC(=S)NCc2ccccc2)cc1`, which Potency is on record?
Answer: active: 2.67 µM

Question: `C=CCNC(=O)CN1C2CCCC1CC(NC(=O)c1ccccc1C)C2` (stereo not given) was tested. Which Potency did it give?
Answer: inconclusive: 23.8 µM [inhibitor, single point]

Question: How did the Potency turn out when `Cc1cccc(N2CCN(C(=O)c3ccc4ncsc4c3)CC2)c1C` was run?
Answer: inconclusive: 23.8 µM [inhibitor, single point]

Question: How did the max response, negative = inhibition turn out when `Fc1ccc(CNc2nc(-c3ccco3)cc(C(F)(F)F)n2)cc1` was run?
Answer: inactive: -12.8%

Question: Which max response, negative = inhibition does the source give for `CCOC(=O)N1CCN(C(=O)c2ccc3c(=O)n(Cc4ccccc4OC)c(=S)[nH]c3c2)CC1` here?
Answer: inactive: -3.49%

Question: Which Potency does the source give for `C[C@H]1CN([C@@H](C)CO)C(=O)CCCn2cc(nn2)CO[C@@H]1CN(C)S(=O)(=O)c1ccc(-n2cccn2)cc1` here?
Answer: inconclusive: 33.6 µM [inhibitor, single point]

Question: For `O=C1C=CC(=C(c2ccc(O)cc2)c2ccc(O)cc2)C=C1`, which max response, negative = inhibition is on record?
Answer: inactive: 4.74%

Question: How did the Potency turn out when `O=[N+]([O-])c1ccc(N/N=C/c2sc(N3CCOCC3)nc2-c2ccccc2)c(S(=O)(=O)Nc2ccccc2Cl)c1` was run?
Answer: inconclusive: 23.8 µM [inhibitor, single point]

Question: For `COc1ccc(CNC(=S)Nc2cc(C)ccc2C)cc1`, which Potency is on record?
Answer: inconclusive: 21.2 µM [inhibitor, partial curve]

Question: With `CC(=O)N(CCCN1CCOCC1)Cc1ccncc1` as the molecule, how does the Potency read?
Answer: active: 29.9 µM

Question: How did the max response, negative = inhibition turn out when `Cc1cc(=O)[nH]c(SCC(=O)Nc2nonc2C)n1` was run?
Answer: inactive: -3.06%

Question: Which Potency does the source give for `Cc1ccc(N2C(=O)SC(Cc3ccccc3)C2=O)cc1` (stereo not given) here?
Answer: active: 7.52 µM

Question: With `S=C(NCCCN1CCOCC1)Nc1ccc(Cl)cc1` as the molecule, how does the max response, negative = inhibition read?
Answer: inactive: -2.02%

Question: For `O=C(COc1ccccc1F)NC12CC3CC(CC(C3)C1)C2`, which Potency is on record?
Answer: active: 29.9 µM

Question: Which Potency does the source give for `Cn1c(SCC(=O)c2ccccc2)nnc1-c1cccc(N)c1` here?
Answer: active: 23.8 µM

Question: Which max response, negative = inhibition does the source give for `Cc1ccc(-c2cc(-c3ccccc3)nc(Cl)n2)cc1` here?
Answer: inactive: 2.06%

Question: `C=CCOC(=O)/C=C/C(=O)NC(N)=O` was tested. Which Potency did it give?
Answer: inconclusive: 26.7 µM [inhibitor, single point]

Question: For `O=C1SC(SCc2ccccc2Cl)=N/C1=C\c1ccc(C(=O)O)cc1`, which Potency is on record?
Answer: active: 16.8 µM

Question: For `CC(=O)c1cc(C#N)c(N2CCCC2)nc1C`, which Potency is on record?
Answer: active: 29.9 µM

Question: With `On1nnc2c3ccccc3c3ccccc3c21` as the molecule, how does the max response, negative = inhibition read?
Answer: inactive: -7.31%

Question: Which Potency does the source give for `Nc1cc2nsnc2cc1Br` here?
Answer: inconclusive: 13.4 µM [inhibitor, partial curve]

Question: Which Potency does the source give for `COC(=O)CNS(=O)(=O)c1ccc(C)cc1` here?
Answer: inconclusive: 23.8 µM [inhibitor, single point]

Question: How did the Potency turn out when `O=C(/C(C=Nc1cc2c(oc1=O)CCCC2=O)=C(\O)c1ccccc1)c1ccccc1` was run?
Answer: inconclusive: 33.6 µM [inhibitor, single point]

Question: How did the Potency turn out when `Oc1c(Br)cc(Br)cc1/C=N/n1c(-c2ccccc2)n[nH]c1=S` was run?
Answer: inconclusive: 29.9 µM [inhibitor, partial curve]

Question: With `Cc1cccc(NC(=O)C(c2ccccc2Cl)N2CCOCC2)c1` (stereo not given) as the molecule, how does the max response, negative = inhibition read?
Answer: inactive: -10.6%

Question: `Cc1cc(Cl)cc(C)c1OCCCCn1ccnc1` was tested. Which max response, negative = inhibition did it give?
Answer: inactive: -1.17%

Question: `Cc1ccc(-n2[nH]c(=O)c(-c3ccccn3)c2C)cc1` was tested. Which max response, negative = inhibition did it give?
Answer: inactive: -9.99%

Question: How did the Potency turn out when `COc1ccccc1/C=C/C=N/n1c(-c2ccc(F)cc2)n[nH]c1=S` was run?
Answer: inconclusive: 23.8 µM [inhibitor, single point]

Question: `O=C(O)c1cccc(NC(=O)c2cn(-c3ccccc3)nc2-c2cc3ccccc3o2)c1` was tested. Which Potency did it give?
Answer: inconclusive: 18.9 µM [inhibitor, single point]

Question: How did the max response, negative = inhibition turn out when `C/C(=N\NC(=O)c1cc(-c2ccccc2C)nc2ccccc12)c1cccnc1` was run?
Answer: inactive: 0.032%

Question: Which max response, negative = inhibition does the source give for `COc1ccc(S(=O)(=O)N2CCCCC2c2cc(C(=O)Nc3ccc(F)c(Cl)c3)no2)cc1` (stereo not given) here?
Answer: inactive: -5.67%

Question: Which Potency does the source give for `CSc1cccc(NC(=O)COc2ccccc2)c1` here?
Answer: active: 2.99 µM

Question: With `CC1(c2ccccc2)CC(C)(C)N(C(=O)C2CCCO2)c2ccccc21` (stereo not given) as the molecule, how does the max response, negative = inhibition read?
Answer: inactive: -3.36%

Question: For `C=C[C@]1(C)C[C@H]1[C@H](NP(=O)(c1ccccc1)c1ccccc1)c1ccccc1`, which max response, negative = inhibition is on record?
Answer: inconclusive: -33% [inhibitor]

Question: How did the max response, negative = inhibition turn out when `CC(C)(C)OC(=O)C[C@H]1C/C=C\C[C@H](CC(=O)NCCO)C(=O)N[C@@H](c2ccccc2)COC1=O` was run?
Answer: inactive: -3.36%

Question: How did the max response, negative = inhibition turn out when `O=[N+]([O-])c1ccc(N/N=C2\CC3CC=CC23)cc1` (stereo not given) was run?
Answer: inactive: -3.89%

Question: With `CC1(C)C(=O)Nc2ccccc2N1C(=O)COC(=O)c1ccc([N+](=O)[O-])o1` as the molecule, how does the Potency read?
Answer: inconclusive: 26.7 µM [inhibitor, partial curve]

Question: Which Potency does the source give for `O=C1SC(SC(=Nc2ccccc2)Nc2ccccc2)C(=O)N1c1ccccc1` (stereo not given) here?
Answer: active: 2.67 µM and active: 6.7 µM

Question: How did the Potency turn out when `COc1ccc2nc(SCC(=O)N3CCN(c4ccc(F)cc4)CC3)c(C#N)cc2c1` was run?
Answer: active: 2.99 µM

Question: How did the Potency turn out when `O=C(CSc1nc2ccccc2n1Cc1ccccc1Cl)N/N=C/c1ccccc1C(=O)O` was run?
Answer: inconclusive: 67 µM [inhibitor, partial curve]

Question: Which max response, negative = inhibition does the source give for `FC(F)(F)c1cccc(N2CCN(Cc3ccoc3)CC2)c1` here?
Answer: inactive: -5.02%

Question: For `O=C1NN(c2cccc(Br)c2)C(=O)/C1=C\c1ccc(N2CCOCC2)cc1`, which Potency is on record?
Answer: inconclusive: 10.6 µM [inhibitor, partial curve]

Question: How did the max response, negative = inhibition turn out when `COc1cc(NC(=O)c2ccccc2)c(OC)cc1NC(C)=O` was run?
Answer: inactive: -1.6%

Question: `Cc1cc(C)nc(NC2=NCCN2C(=O)NC2CCCCC2)n1` was tested. Which Potency did it give?
Answer: active: 7.52 µM

Question: For `O=C(COC(=O)c1ccccc1NC(=O)c1ccco1)Nc1ncc(Cl)cc1Cl`, which max response, negative = inhibition is on record?
Answer: inactive: -14.1%

Question: With `CC1CCCN(S(=O)(=O)c2ccc(C(=O)Nc3nnc(-c4ccccc4Cl)o3)cc2)C1` (stereo not given) as the molecule, how does the Potency read?
Answer: inconclusive: 16.8 µM [inhibitor, partial curve]

Question: `Nc1ccc(C2(c3ccc(N)cc3)c3ccccc3C(=O)c3ccccc32)cc1` was tested. Which max response, negative = inhibition did it give?
Answer: inactive: -3.38%
